In the supplement of paper PMC10849652:
This is one part of the list.

Amino acid sequences for entries named in this document (tags omitted). A change or cut given only in a name is not applied to a line headed by its entry.
UniProt P24386: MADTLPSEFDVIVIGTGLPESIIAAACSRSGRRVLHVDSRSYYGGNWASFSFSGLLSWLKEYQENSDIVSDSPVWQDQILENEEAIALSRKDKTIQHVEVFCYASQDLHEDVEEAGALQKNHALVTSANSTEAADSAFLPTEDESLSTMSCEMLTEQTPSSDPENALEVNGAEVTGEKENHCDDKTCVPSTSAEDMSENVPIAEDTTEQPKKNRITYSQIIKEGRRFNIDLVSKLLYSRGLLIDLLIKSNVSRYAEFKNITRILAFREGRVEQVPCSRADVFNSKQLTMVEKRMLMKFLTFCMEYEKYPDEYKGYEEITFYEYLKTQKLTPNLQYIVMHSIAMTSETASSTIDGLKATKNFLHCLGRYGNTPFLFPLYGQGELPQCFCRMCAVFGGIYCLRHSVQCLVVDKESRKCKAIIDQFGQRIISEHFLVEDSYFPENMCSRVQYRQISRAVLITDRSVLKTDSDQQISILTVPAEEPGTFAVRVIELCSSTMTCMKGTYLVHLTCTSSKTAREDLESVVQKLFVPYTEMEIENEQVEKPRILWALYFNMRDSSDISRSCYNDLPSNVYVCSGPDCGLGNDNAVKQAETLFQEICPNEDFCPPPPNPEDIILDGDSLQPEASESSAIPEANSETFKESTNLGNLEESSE
UniProt Q9NX63: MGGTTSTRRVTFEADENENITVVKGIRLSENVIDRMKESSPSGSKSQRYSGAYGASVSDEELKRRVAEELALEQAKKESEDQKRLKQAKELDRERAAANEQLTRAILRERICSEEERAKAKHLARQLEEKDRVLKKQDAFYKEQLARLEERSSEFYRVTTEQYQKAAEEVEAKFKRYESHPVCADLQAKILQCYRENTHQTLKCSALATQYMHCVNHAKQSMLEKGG
UniProt Q8N2Z9: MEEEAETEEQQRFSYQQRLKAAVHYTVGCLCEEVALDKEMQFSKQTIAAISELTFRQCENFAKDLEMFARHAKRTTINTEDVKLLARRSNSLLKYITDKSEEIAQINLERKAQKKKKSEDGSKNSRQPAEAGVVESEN
UniProt Q9H5V8, whole entry, looked up: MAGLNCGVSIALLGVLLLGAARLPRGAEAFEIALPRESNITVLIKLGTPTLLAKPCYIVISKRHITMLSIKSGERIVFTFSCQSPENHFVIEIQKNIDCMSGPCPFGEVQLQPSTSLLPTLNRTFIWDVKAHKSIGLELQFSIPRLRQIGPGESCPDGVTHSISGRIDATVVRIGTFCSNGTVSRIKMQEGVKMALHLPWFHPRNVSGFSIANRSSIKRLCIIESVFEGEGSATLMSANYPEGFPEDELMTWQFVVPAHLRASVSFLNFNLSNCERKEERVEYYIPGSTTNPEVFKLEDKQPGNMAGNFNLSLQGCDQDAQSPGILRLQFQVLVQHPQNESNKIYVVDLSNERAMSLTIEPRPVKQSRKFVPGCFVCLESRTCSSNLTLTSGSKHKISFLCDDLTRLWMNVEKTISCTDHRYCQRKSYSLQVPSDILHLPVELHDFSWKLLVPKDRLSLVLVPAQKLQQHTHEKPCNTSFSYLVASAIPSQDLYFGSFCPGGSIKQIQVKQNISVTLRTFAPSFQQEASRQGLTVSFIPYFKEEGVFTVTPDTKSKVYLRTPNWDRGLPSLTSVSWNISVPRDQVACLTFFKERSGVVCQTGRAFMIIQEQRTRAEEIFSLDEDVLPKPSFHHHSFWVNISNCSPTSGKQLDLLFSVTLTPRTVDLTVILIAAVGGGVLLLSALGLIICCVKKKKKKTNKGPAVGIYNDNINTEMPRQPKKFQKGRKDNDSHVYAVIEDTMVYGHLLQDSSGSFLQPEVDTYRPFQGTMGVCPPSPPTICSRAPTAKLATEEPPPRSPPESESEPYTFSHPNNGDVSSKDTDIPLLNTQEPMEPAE
UniProt Q7LBR1: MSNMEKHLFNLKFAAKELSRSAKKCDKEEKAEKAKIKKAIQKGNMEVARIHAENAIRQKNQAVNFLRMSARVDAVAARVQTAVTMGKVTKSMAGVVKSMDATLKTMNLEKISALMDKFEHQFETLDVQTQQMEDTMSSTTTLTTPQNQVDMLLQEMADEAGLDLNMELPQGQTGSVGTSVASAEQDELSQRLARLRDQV
UniProt O75419: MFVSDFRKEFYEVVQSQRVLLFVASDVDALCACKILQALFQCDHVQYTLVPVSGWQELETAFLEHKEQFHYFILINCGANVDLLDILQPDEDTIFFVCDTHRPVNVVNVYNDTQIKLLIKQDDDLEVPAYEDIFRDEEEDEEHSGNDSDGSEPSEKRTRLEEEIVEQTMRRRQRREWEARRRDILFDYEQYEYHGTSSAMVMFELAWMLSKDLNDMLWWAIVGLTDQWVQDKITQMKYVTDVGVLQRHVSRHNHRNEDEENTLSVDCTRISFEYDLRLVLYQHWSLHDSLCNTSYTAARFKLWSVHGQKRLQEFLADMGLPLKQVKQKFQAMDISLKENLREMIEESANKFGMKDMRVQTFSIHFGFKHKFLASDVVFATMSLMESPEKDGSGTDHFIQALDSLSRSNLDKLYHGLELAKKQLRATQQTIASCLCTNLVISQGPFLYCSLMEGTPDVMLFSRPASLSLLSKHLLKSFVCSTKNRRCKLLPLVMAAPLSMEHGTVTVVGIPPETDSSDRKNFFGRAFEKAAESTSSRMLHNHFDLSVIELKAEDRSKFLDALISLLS
UniProt Q9BU64: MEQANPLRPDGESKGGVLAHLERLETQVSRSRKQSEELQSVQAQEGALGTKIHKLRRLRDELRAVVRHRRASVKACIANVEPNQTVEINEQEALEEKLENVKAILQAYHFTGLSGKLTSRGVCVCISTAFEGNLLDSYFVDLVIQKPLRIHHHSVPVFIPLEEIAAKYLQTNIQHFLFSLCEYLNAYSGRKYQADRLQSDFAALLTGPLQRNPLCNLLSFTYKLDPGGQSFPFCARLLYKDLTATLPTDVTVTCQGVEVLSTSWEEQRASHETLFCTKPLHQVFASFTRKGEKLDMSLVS
UniProt P57076: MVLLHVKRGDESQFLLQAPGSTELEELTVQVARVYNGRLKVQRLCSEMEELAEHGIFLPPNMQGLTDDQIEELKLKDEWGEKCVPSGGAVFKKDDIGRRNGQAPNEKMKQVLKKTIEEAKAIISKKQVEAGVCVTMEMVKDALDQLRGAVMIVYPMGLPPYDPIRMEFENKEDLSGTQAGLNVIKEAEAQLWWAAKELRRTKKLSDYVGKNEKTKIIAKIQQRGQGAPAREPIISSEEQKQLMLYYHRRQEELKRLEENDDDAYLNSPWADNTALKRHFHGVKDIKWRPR
UniProt Q8N5B7: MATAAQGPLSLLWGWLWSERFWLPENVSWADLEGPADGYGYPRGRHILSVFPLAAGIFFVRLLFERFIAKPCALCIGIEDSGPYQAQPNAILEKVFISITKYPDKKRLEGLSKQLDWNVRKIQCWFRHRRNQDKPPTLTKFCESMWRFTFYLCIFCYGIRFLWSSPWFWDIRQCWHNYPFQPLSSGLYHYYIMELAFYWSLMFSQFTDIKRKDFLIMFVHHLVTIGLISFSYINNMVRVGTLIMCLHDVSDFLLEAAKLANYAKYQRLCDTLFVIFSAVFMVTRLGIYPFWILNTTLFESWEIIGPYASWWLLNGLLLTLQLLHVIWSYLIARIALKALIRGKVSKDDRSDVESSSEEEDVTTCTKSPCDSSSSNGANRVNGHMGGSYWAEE
UniProt O14519: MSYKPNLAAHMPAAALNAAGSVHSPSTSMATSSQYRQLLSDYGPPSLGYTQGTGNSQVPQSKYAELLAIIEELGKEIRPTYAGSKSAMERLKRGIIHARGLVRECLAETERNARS
UniProt P42773: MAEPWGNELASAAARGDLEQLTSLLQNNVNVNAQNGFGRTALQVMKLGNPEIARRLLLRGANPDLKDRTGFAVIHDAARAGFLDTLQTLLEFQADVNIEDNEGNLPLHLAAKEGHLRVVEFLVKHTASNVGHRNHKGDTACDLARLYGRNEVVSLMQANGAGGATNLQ
UniProt Q6P2H3: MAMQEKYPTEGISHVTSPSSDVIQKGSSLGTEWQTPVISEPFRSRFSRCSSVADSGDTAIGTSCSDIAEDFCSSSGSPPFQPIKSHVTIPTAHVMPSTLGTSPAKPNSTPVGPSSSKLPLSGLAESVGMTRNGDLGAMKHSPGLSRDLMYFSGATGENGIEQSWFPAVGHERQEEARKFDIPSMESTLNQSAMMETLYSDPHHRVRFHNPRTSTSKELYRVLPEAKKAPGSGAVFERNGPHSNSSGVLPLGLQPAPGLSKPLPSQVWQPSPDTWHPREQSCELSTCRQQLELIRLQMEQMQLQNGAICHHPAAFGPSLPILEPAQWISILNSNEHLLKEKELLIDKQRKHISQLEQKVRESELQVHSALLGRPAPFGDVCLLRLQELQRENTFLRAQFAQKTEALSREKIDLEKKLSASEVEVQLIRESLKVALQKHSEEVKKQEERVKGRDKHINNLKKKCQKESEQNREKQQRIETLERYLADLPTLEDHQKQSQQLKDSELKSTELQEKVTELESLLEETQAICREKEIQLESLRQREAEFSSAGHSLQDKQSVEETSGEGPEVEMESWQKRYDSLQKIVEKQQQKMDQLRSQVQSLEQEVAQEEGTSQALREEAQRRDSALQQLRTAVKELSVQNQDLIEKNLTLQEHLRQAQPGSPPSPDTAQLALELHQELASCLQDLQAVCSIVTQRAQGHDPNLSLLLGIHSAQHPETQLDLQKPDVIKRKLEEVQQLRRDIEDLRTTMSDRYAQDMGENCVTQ
UniProt Q9UKY7: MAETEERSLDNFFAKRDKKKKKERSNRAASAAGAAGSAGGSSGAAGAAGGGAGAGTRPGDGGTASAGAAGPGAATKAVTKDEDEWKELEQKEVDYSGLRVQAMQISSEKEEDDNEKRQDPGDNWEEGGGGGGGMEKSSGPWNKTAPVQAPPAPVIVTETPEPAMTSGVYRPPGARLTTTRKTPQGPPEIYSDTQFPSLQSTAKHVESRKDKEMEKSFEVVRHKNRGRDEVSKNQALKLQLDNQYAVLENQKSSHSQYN
UniProt Q5SW79: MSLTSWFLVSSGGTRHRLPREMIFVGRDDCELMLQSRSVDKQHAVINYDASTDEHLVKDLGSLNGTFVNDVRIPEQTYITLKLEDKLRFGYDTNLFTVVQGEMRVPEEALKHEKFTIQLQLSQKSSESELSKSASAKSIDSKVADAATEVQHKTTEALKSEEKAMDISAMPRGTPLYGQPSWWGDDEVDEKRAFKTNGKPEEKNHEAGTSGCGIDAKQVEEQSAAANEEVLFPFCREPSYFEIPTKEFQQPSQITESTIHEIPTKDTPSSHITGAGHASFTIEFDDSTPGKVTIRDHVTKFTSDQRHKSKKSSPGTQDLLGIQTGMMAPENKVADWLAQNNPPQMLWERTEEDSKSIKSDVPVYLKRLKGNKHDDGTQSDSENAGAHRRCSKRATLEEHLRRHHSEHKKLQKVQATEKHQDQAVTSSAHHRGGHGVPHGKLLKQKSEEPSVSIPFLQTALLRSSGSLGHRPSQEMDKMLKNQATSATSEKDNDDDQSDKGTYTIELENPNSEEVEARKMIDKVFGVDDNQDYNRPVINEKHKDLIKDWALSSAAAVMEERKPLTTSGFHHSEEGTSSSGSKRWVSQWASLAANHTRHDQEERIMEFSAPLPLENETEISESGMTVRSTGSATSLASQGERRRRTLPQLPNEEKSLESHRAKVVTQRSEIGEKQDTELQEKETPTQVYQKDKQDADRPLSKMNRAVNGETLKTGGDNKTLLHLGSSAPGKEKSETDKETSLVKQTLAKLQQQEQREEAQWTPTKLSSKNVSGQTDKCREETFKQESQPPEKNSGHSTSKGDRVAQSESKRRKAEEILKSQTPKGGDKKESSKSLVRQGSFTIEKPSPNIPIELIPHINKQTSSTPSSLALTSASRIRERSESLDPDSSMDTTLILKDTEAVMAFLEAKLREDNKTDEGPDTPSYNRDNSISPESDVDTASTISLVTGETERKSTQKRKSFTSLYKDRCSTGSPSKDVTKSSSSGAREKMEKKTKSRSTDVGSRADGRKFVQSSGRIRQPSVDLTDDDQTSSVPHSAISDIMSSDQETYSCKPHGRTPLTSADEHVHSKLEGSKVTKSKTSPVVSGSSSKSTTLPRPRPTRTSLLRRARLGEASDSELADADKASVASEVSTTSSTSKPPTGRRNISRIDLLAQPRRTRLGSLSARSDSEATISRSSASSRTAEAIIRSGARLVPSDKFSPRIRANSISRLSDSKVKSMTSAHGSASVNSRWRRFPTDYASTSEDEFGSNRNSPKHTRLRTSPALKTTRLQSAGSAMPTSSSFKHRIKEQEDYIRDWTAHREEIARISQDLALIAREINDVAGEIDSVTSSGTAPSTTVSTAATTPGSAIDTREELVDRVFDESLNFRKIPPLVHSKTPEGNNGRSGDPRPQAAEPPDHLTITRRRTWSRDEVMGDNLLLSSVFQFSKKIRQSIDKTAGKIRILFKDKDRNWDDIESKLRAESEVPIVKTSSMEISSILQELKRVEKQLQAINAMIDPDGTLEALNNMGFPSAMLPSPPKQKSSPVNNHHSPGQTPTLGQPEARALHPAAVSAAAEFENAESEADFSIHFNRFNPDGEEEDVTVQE

Compound: c1cn2cc(-c3ccc4cn[nH]c4c3)nc(Nc3ccc(N4CCOCC4)cc3)c2n1 [entospletinib]
Assay: log2 fold change, soluble protein after heating vs DMSO (PISA); higher = thermal stabilisation; K562 cells, 10 uM, 30 min; active = over 0.2 and 3.5 SD of the protein, either way, in both replicates (recomputed)
Outline: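 K562 cells (2×10^6 cells/mL) were treated with 10 μM compound for 30 min, and aliquots were heated for 3 min over 48°C-58°C. Pooled aliquots were extracted in PBS with 0.5% NP-40 at 4°C, and the supernatant after 21,000xg for 90 min was measured by TMTpro 16plex LC-MS/MS with channel sums equalised. Reported thermal stability, relative to control samples and from duplicates, is a log2 fold change.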

log2 fold change, inactive:
CHM (UniProt P24386) -0.011
CHCHD3 (UniProt Q9NX63) 0.01
CDKAL1 (UniProt Q5VV42) 0.005
CHKB (UniProt Q9Y259) -0.044
CDK7 (UniProt P50613) -0.029
CENPS (UniProt Q8N2Z9) -0.019
CDCP1 (UniProt Q9H5V8) -0.018
CHMP1B (UniProt Q7LBR1) -0.006
CHEK2 isoform 9 (UniProt O96017) -0.07
CDC45 isoform 3 (UniProt O75419) -0.19
CENPO (UniProt Q9BU64) -0.078
CDSN (UniProt Q15517) -0.208
CEP76 (UniProt Q8TAP6) -0.025
CFAP298 (UniProt P57076) 0.201
CERS5 (UniProt Q8N5B7) -0.014
CEP41 (UniProt Q9BYV8) -0.627
CDK2AP1 (UniProt O14519) -0.048
CHD6 (UniProt Q8TD26) 0.077
CDKN2C (UniProt P42773) 0.034
CEP350 (UniProt Q5VT06) 0.101
CEP85 (UniProt Q6P2H3) 0.221
CDV3 (UniProt Q9UKY7) -0.018
CEP170 (UniProt Q5SW79) 0.11

For reference, some entries already given.
log2 fold change, inactive:
CHEK2 isoform 9 (UniProt O96017) -0.07
CDC45 isoform 3 (UniProt O75419) -0.19
